# Experimental data taken from PubChem BioAssay AID2417 (National Center for Advancing Translational Sciences (NCATS), 2010).
# In all, about 140,000 compounds went through this assay and about 4,300 (3.1%) were called active. The shares of active, inactive and inconclusive entries below differ from those in the screen.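 How the source made its calls: active means readout at or below -70, meaning at least 70% loss of cells showing the perinucleolar compartment, a nuclear body marking cancer cells; inconclusive means readout between -30 and a set limit; inactive means the rest.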
# Assay: High Content Assay for Compounds that inhibit the Assembly of the Perinucleolar Compartment
# Conditions: PC3M PTB-GFP, PNC prevalence imaging, 16 h; at 10 µM; stronger effect = lower value
# From the text: High Content Assay for Compounds that inhibit the Assembly of the Perinucleolar Compartment NIH Chemical Genomics Center [NCGC] NIH Molecular Libraries Probe Centers Network [MLPCN] MLPCN Grant: MH082371-01A2 Assay Submitter (PI): Sui Huang, Northwestern University, Feinberg School of Medicine, Cell and Molecular Biology, Chicago, Illinois. The perinucleolar compartment (PNC) is a non-membrane-bound nuclear subdomain that is associated with but structurally distinct from the nucleolus. The PNC is a heritable trait, in which the number of PNCs per cell in daughter cells often mimics that of their mother cells. The PNC is heterogeneous in shape, is stable through interphase, disassembles during mitosis, and reassembles in early G1. The PNC is concentrated with newly synthesized RNA polymerase III (pol III) RNAs (MRP RNA, RNAse P H1 RNA, hY RNAs[hY1, 2, 5], Alu RNA, and SRP [7SL] RNA) and RNA binding proteins (nucleolin, PTB, CUG-BP, KSRP, Raver1, Raver2, and Rod). […] Extensive in vitro studies have shown that the PNC is unique to tumor cells and preferentially forms in tumor cells derived from solid tissues. Examination of cancer cell lines from various origins and malignant capacities has shown that PNC prevalence correlates with the malignancy of tumors and has the potential to be developed as a pan-cancer prognostic marker. […] Although the PNC is associated with a DNA locus and a handful of components have been identified, much remains to be investigated regarding the structure and function of the PNC and its mechanistic link to cancer. We have previously shown that PNC prevalence reduction is a valid strategy to identify compounds that can be used to study the structure and function of the PNC. It is necessary, however, to create a screening platform that is able to test a large number of compounds in an automated fashion. Here we report the development and robustness of an automated whole-cell phenotypic image-based screening assay that is capable of identifying such compounds.
# PNC High Content Imaging Assay Procedure: 1. Cells at a density of 75-90% confluency in T175 flasks were harvested using 7 ml TrypLE Express cell dissociation reagent. After dissociation (5 minutes room temperature incubation) 10 ml of complete media was added to the TrypLE/cell suspension. The liquid was transferred to a 50 ml Conical tube and cells were pelleted at 1000 RPM for 5 min. Supernatant was removed and cells were resuspended to a final density of 150-200 cells/ul in complete media. 2. Cells were plated in 5 ul volume (750-1000 cells/well) into 1536 well Black uclear Aurora Low Base plates and allowed to recover and adhere at 37 C in a humidified 5% CO2 incubator for 4 hours. 3. After 4 hour incubation, compound libraries (23 nl of […] in columns 5-48) were transferred to the plates in duplicate using a 1536 well pintool. Camptothecin positive control (59 uM final) was added to column 2 and 1:3 dilutions of camptothecin was added to column 3. DMSO negative controls were present in columns 1 and 4. 4. After a 16 hour incubation in the 37 C incubator, cells were fixed by the addition of 4 ul of 6% EM grade paraformaldehyde (containing 0.1% triton X 100) directly to the cells. The plates were incubated at room temperature for 20 minutes. The liquid was removed using a 32 channel Kalypsys aspirator and the fixed cells were washed twice with 5 ul PBS followed by a final addition of 5 ul PBS containing 1 ug/ml Hoechst 33342. 5. Fixed plates were sealed and sotred at 4C until imaged. 6. Plates were imaged on an InCell 1000 automated microscope using a 20 x objective, a standard FITC filter set, no camera binning, and an exposure time of ~100-150 msec/well. 7. Data analysis. PNC prevalence was determined using the Multitarget analysis module from InCell Workstation software (V3.5 ) and analysis was run on a quad core workstation using the Incell Developer Toolbox (V1.7). […]
row,Structure (SMILES),"activity change (PNC), negative = inhibition"
1,Cc1cccc2sc(NC(=O)C3CCCN(S(=O)(=O)c4cccc5nonc45)C3)nc12 (stereo unspecified),active: -100%
2,CO/N=C/c1ccc(N2CCN(C(=O)c3ccc(F)cc3)CC2)c([N+](=O)[O-])c1,inactive: 2.36%
3,O=C(CSc1nc2ccc(Cl)cc2[nH]1)NCc1ccco1,inactive: -3.11%
4,Cc1c(OCc2ccccc2)c(=O)ccn1Cc1ccc(Cl)cc1,inactive: 18.3%
5,COc1ccc(Cn2nnnc2C(C(C)C)N2CCN(c3ccccc3OC)CC2)cc1 (stereo unspecified),inactive: 34.7%
6,CC(C)(C)C(=O)Cn1c(=N)n(Cc2ccccc2)c2ccccc21,active: -119%
7,COc1ccc(N(CC(=O)Nc2ccc3c(c2)OCO3)S(=O)(=O)c2ccccc2)c(OC)c1,inconclusive: -76.8%
8,CCOC(=O)c1c(Cc2ccc(Cl)cc2)c[nH]c1C,inconclusive: -32.3%
9,Cc1c(C(=O)N2CCCCC2)sc(NC(=O)C(C)C)c1C#N,inactive: 22.4%
10,CCc1nnc(NC(=O)C2CCN(S(=O)(=O)Cc3ccccc3)CC2)s1,active: -100%
11,Cc1cc(C(=O)Nc2nc3c(C)cccc3s2)c(C)o1,inconclusive: -50.1%
12,COc1cccc(OC)c1C(=O)Nc1nnc(C(C)C)s1,inconclusive: -32.5%
13,CCOC(=O)N1CCN(C(=O)c2ccc(N(C)S(C)(=O)=O)cc2)CC1,inactive: -13.2%
14,CCC(=O)Oc1ccc(/C(CC)=C(\CC)c2ccc(OC(=O)CC)cc2)cc1,inactive: -23.3%
15,O=C(N/N=C/C=C/c1ccccc1[N+](=O)[O-])c1cc(-c2ccccc2)n[nH]1,inactive: -21.8%
16,CCCCOC(=O)C1=C(C)Nc2nnnn2C1c1ccccc1Cl (stereo unspecified),inactive: -7.08%
17,COC(=O)c1c(NC(=O)CN2CCCc3ccccc32)sc(C)c1C,inactive: 8.22%
18,O=C(c1ccccc1)N1CCCCC(Sc2nnc3ccccn23)C1=O (stereo unspecified),inconclusive: -41.3%
19,Cc1ccc2nc(SC(C)C(=O)NC3CCCc4ccccc43)[nH]c2c1 (stereo unspecified),inconclusive: -34.6%
20,CCOC(=O)NCc1ccc(S(=O)(=O)Nc2ccccc2C)cc1,inactive: -23.7%
21,CCCN1Cc2cccc(C(=O)Nc3ccc(CC)cc3)c2C1=O,inconclusive: -47.7%
22,COc1ccc(-c2nc(SCC(=O)Nc3cc(C)on3)n[nH]2)cc1,inconclusive: -35%
23,Cc1ccc(C)c(N(CC(N)=O)S(C)(=O)=O)c1,inconclusive: -49.7%

row,Structure (SMILES),"activity change (PNC), negative = inhibition"
1,CC(=O)Nc1cccc(Oc2cc(C#N)c(C#N)cc2N2CCOCC2)c1,active: -107%
2,COc1nc(Nc2ccc(O)cc2)nc(OC(C(F)(F)F)C(F)(F)F)n1,inactive: -12.2%
3,Clc1ccc(CSc2nnc3ccccn23)c(Cl)c1,inconclusive: -35.4%
4,COC(Cc1n[nH]c(=S)n1-c1ccc(Cl)cc1)OC,inconclusive: -32%
5,Cn1c(SCc2ccc(Br)cc2)nnc1-c1ccncc1,inconclusive: -66.9%
6,CCC(=O)Nc1nnc(CCc2ccccc2)s1,inactive: 46.1%
7,CC(C)(C)c1ccc(-c2c(C#N)c(N)nc3c2CCCC3)s1,inactive: 57.1%
8,CCOc1cc(CNc2ccc3c(c2)OCCO3)cc(Br)c1OCC,active: -83.2%
9,Cc1cc(SCC(=O)NCCC2=CCCCC2)nc2ccccc12,inactive: 3.92%
10,COC(=O)[C@H](C)[C@@H]1C[C@@]1(C)[C@@H](NC(=O)OCc1ccccc1)c1ccccc1,inactive: 48.8%
11,Cc1ccc(N=CC2=C(O)CC(C)(C)CC2=O)nc1,inactive: 9.82%
12,COc1ccc(CNC(=O)CN(Cc2ccccc2)S(=O)(=O)c2ccc(Cl)cc2)cc1,inactive: 22.7%
13,COc1ccc(OC)c(NC(=O)CSc2nc3cccnc3n2C)c1,inconclusive: -60.5%
14,CC1=C(C)C(=O)N(c2ccc(C(=O)O)cc2)C1=O,inactive: 0.851%
15,Cc1oc(-c2cccc(Cl)c2)nc1CN1CCCC(C(=O)NCc2ccco2)C1 (stereo unspecified),inconclusive: -54.2%
16,Cc1[nH]c(=O)[nH]c(=O)c1S(=O)(=O)N1CCCC1,inactive: 84.8%
17,CCCCN(C(=O)CSc1nnc(Nc2ccc(C)c(C)c2)s1)c1c(N)n(Cc2ccccc2)c(=O)[nH]c1=O,inconclusive: -67%
18,CCN(C(=O)c1cn(C)c(=O)c2cc(OC)c(OC)cc12)c1ccccc1C,inconclusive: -57.6%
19,O=C(Nc1ccnc(-c2cccnc2)n1)c1ccc(Cl)c(Cl)c1,inconclusive: -41.7%
20,Cc1ccc(N(C(=O)C2CCC(=O)N2)C2(C(=O)NC3CCCC3)CCCCC2)cc1 (stereo unspecified),inactive: -14.4%
21,CCOC(=O)c1ccc(N/C(=N\S(=O)(=O)c2ccc(F)cc2F)c2ccccc2)cc1,inactive: 10.6%
22,Cc1ccc(NC(=O)CSc2nnc(-c3ccccn3)n2C)cc1,inconclusive: -65.3%
23,CCN(CC#CCC(O)(c1ccccc1)C1CCCC1)C(C)C (stereo unspecified),inactive: -23.2%

# Structural class, those above containing two or more sulfur atoms.
row,Structure (SMILES),"activity change (PNC), negative = inhibition"
1,Cc1cccc2sc(NC(=O)C3CCCN(S(=O)(=O)c4cccc5nonc45)C3)nc12 (stereo unspecified),active: -100%
10,CCc1nnc(NC(=O)C2CCN(S(=O)(=O)Cc3ccccc3)CC2)s1,active: -100%
17,CCCCN(C(=O)CSc1nnc(Nc2ccc(C)c(C)c2)s1)c1c(N)n(Cc2ccccc2)c(=O)[nH]c1=O,inconclusive: -67%

# The listing continues:

row,Structure (SMILES),"activity change (PNC), negative = inhibition"
1,O=C(/C=C/c1cn(CC(O)CN2CCCCC2)c2ccccc12)c1cccs1 (stereo unspecified),inconclusive: -61.7%
2,CN(C)c1ccc(N2C(=O)CSC2=S)cc1,inactive: -9.31%
3,COc1cccc(C2=CC(c3cccc(OC)c3OC)n3nnnc3N2)c1 (stereo unspecified),active: -86.6%
4,CCOc1cc(-c2nn3cnnc3s2)cc(OCC)c1OCC,inconclusive: -33.6%
5,Cc1cc(C)nc(N/N=C/C(Cl)=C/c2ccccc2)n1,inactive: 4.17%
6,O=C(CN1C(=O)NC2(CCCCCCC2)C1=O)NC1CCCc2ccccc21 (stereo unspecified),inconclusive: -41.2%
7,O=C(CCN1C(=O)C2C3C=CC(C3)C2C1=O)N1CCN(c2ccccn2)CC1 (stereo unspecified),inactive: 13.6%
8,O=S(=O)(Nc1nc2c(s1)CCCC2)c1ccc(F)cc1,inactive: 0.578%
9,CC(=O)Oc1c(/C=C(\C#N)C(N)=O)[nH]c2ccccc12,inactive: 19.3%
10,Cc1ccc(SC/C(O)=C(\C#N)c2nc3ccccc3s2)cc1,inactive: -9.14%
11,Cc1ccc(C(=O)N2CCCCCC2)cc1Br,inconclusive: -61.3%
12,Cn1c(CN2CCN(C(=O)c3ccccc3)CC2)nc2cc([N+](=O)[O-])ccc21,inconclusive: -34.2%
13,CC1(C)Cc2c(C#N)c(SCc3nc4ccccc4[nH]3)nc(N3CCOCC3)c2CO1,inconclusive: -40.5%
14,CC(=O)Nc1nc(S(=O)(=O)c2ccc(C)cc2)c(Cl)s1,inconclusive: -38.4%
15,CC1=CC(C)(C)Nc2ccc(C)cc21,inconclusive: -45.1%
16,CC1(C)NC(=O)N(CC(O)COC2CCCCC2)C1=O (stereo unspecified),inactive: 25.7%
17,Cn1c(=O)c2c(SCc3ccccn3)nc(C3CC3)nc2n(C)c1=O,inconclusive: -57.7%
18,CCOc1ncccc1C(=O)N1CCN(Cc2ccc3c(c2)OCO3)CC1,inconclusive: -48.8%
19,COc1ccc(C2CC(c3cccs3)n3nc(N)nc3N2)cc1 (stereo unspecified),inconclusive: -79.2%
20,COc1cc(OC)cc(N(C(=O)c2ccco2)C(C(=O)NC2CCCC2)c2ccc(N(C)C)cc2)c1 (stereo unspecified),inactive: 5.87%
21,CNC(=O)CC(=O)Nc1ccccc1C(=O)O,inconclusive: -55.6%
22,O=C(O)/C=C/c1ccccc1Oc1ccccc1,inconclusive: -74%
23,Cn1c(=O)c2c(SCC(=O)N3CCCc4ccccc43)nc(CC(C)(C)C)nc2n(C)c1=O,inconclusive: -33.4%

row,Structure (SMILES),"activity change (PNC), negative = inhibition"
1,CCOC(=O)C(NC(=O)c1cccnc1)(Nc1cccc(C)n1)C(F)(F)F (stereo unspecified),inactive: 23.9%
2,O=C(CSc1nnc(CNC(=O)c2cccs2)o1)Nc1ccc2c(c1)OCO2,inconclusive: -30.1%
3,CCCCN1C(=O)/C(=C/C=C2/CC(C)(C)CN2C)SC1=S,inactive: -25%
4,O=C(Nc1ccc(OC(F)F)c(Cl)c1)Nc1ccc2c(c1)OCO2,active: -86.7%
5,Cc1ccc(SCC(=O)Nc2ccc(N3CCN(c4ccccc4)CC3)c(F)c2)cc1,inconclusive: -30.8%
6,O=C(O)CCC(=O)Nc1ccc(-c2nnc(-c3ccco3)o2)cc1,inconclusive: -34.3%
7,Cc1ccc(C(=O)CSC2=C(C#N)C(c3ccco3)C3=C(CCCC3=O)N2)cc1 (stereo unspecified),inactive: -1.97%
8,CCN(C(=O)COC(=O)CNC(=O)c1ccc(C)c(C)c1)C1CCS(=O)(=O)C1 (stereo unspecified),active: -121%
9,CCOc1ccc(C(O)c2nccn2Cc2ccccc2)cc1 (stereo unspecified),inconclusive: -53.4%
10,Cc1c(C(=O)OC2CCCC2)[nH]c2c1C(=O)CC(c1ccco1)C2 (stereo unspecified),active: -108%
11,COc1ccc(C2(C(=O)Nc3nncs3)CCCC2)cc1,active: -80.2%
12,Cc1ccc(N(CCCCN2C(=O)c3ccccc3C2=O)C(=O)c2cccs2)cc1,inactive: 1.88%
13,CCOc1c2ccc(C(=O)NCc3ccc(C)cc3)cc2nn1CC,inactive: 77.3%
14,C=CCn1c(COc2ccccc2F)nnc1SCC(=O)NC(=O)NCc1ccco1,inactive: -20.1%
15,CSCCC1(C(=O)O)NC(c2ccccc2O)C2C(=O)N(C(C)C)C(=O)C21 (stereo unspecified),inconclusive: -52.3%
16,Cc1cc(C)c(C#N)c(Oc2ccc(F)cc2)n1,inconclusive: -30.6%
17,Cn1c(=O)c2c(nc(NCc3ccc4c(c3)OCO4)n2Cc2ccccc2)n(C)c1=O,inactive: 35.5%
18,CCS(=O)(=O)N1CCCC(C(=O)NCCc2ccccc2)C1 (stereo unspecified),inconclusive: -70.2%
19,O=C(CCN1CCc2ccccc2C1)Nc1ccc2c(c1)OCO2,inconclusive: -46.2%
20,COC(=O)c1c(NC(=O)Cc2cccs2)sc2c1CCC(C)C2 (stereo unspecified),inconclusive: -69.4%
21,O=c1c2ccccc2ncn1Cc1ccco1,inconclusive: -43.1%
22,COC(=O)c1sc(N)c(C(=O)OC)c1COC(=O)CNS(=O)(=O)c1ccc(C)cc1,inconclusive: -73.2%
